The other results are listed elsewhere or left out.
Legend:
Test in all cases: log2 fold change, soluble protein after heating vs DMSO (PISA); higher = thermal stabilisation; K562 lysate, 10 uM; active = over 0.2 and 3.5 SD of the protein, either way, in both replicates (recomputed)
ibrutinib = compound: C=CC(=O)N1CCC[C@@H](n2nc(-c3ccc(Oc4ccccc4)cc3)c3c(N)ncnc32)C1 [ibrutinib]
Method in brief: (§1)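 The values are log-two fold changes in thermal stability compared with solvent controls and come from duplicates. They were obtained by TMTpro 16plex LC-MS/MS, with channel sums equalised, on the supernatant after 21,000xg for 90 min. That supernatant came from crude K562 extract at 1 mg/mL protein treated with 10 μM compound for 30 min, heated for 3 min across 48°C-58°C, pooled and brought to 0.5% NP-40 at 4°C.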

Chains of the proteins cited; added tags and fusions are not shown. Lines headed by an entry give the natural chain unless they say otherwise; changes in a name come on top.
UniProt Q9Y580: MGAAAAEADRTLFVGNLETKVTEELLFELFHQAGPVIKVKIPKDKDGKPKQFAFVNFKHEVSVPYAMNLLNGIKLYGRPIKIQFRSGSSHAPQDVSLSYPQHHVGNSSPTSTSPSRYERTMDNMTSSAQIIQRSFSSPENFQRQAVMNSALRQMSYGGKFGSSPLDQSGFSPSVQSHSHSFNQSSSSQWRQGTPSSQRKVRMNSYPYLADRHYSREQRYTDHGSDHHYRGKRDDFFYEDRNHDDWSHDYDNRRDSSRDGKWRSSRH
UniProt Q9H6H4: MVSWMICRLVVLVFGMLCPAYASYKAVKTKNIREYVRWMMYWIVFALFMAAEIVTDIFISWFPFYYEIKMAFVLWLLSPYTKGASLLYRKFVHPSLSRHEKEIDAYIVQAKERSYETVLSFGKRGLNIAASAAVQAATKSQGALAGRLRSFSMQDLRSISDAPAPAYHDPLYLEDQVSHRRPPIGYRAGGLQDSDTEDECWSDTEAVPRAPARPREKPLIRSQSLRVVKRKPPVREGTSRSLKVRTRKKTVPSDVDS
UniProt Q9Y2P8: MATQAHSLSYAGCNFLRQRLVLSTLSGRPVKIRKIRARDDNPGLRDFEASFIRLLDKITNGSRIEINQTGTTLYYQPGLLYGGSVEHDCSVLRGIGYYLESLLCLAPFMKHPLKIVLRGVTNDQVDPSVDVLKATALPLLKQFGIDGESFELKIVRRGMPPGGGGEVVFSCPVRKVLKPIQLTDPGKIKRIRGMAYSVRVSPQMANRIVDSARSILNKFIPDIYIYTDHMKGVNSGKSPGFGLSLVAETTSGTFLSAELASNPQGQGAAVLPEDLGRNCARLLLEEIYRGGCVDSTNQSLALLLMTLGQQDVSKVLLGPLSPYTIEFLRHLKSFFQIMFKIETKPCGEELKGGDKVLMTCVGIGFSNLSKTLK
UniProt Q6JBY9, whole entry, looked up: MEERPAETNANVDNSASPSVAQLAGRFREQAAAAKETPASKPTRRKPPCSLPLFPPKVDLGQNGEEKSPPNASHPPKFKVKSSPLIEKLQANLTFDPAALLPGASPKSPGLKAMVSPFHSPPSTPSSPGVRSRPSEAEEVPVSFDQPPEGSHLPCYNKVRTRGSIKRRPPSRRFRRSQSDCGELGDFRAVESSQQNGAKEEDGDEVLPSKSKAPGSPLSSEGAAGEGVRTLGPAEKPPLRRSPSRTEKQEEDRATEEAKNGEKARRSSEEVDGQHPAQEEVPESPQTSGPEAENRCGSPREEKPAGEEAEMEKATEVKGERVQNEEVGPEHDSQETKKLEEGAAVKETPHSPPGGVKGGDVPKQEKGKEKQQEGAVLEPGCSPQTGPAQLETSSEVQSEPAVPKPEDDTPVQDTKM
UniProt P35251: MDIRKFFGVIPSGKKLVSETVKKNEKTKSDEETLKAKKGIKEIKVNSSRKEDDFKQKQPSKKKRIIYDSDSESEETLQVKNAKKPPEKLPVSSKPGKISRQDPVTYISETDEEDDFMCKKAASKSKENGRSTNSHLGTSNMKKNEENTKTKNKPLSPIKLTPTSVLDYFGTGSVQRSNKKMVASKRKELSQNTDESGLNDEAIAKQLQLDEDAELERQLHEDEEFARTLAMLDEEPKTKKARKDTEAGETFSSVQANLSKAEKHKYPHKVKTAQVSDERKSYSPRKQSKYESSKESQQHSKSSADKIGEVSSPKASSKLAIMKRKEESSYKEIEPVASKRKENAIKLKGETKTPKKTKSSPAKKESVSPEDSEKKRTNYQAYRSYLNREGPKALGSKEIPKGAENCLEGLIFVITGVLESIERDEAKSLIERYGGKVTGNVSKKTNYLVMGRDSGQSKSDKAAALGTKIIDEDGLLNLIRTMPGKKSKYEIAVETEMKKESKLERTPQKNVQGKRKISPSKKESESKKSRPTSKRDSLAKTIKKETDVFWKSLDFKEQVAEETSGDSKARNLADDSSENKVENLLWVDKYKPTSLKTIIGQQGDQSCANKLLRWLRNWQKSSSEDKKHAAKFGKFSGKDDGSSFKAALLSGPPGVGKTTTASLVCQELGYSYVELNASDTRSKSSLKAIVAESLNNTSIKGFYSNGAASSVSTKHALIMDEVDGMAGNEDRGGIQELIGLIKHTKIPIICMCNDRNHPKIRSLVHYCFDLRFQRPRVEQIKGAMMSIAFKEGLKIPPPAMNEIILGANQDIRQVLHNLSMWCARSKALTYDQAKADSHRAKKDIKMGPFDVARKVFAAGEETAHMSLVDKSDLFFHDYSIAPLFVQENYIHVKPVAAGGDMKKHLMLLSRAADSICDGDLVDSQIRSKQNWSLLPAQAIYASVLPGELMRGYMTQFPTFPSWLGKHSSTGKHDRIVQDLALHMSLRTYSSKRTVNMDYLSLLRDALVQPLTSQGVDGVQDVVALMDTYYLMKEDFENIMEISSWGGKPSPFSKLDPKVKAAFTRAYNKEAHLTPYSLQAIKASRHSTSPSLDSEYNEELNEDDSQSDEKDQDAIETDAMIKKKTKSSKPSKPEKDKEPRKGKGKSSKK
UniProt Q15291, whole entry, looked up: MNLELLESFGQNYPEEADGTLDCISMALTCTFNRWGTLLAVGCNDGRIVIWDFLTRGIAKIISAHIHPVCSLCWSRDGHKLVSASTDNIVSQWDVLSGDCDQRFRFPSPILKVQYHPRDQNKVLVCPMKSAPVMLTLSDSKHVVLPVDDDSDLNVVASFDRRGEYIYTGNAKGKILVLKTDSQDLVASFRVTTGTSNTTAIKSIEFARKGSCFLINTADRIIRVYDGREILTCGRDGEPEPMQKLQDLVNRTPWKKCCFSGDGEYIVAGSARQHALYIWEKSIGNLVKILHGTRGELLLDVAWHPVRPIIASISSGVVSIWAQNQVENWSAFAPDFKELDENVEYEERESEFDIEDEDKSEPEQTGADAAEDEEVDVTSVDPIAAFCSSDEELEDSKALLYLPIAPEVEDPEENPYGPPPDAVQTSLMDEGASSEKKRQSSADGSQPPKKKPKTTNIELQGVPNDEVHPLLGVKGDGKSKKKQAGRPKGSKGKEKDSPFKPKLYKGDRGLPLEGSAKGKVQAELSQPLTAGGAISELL
UniProt Q96I51, whole entry, looked up: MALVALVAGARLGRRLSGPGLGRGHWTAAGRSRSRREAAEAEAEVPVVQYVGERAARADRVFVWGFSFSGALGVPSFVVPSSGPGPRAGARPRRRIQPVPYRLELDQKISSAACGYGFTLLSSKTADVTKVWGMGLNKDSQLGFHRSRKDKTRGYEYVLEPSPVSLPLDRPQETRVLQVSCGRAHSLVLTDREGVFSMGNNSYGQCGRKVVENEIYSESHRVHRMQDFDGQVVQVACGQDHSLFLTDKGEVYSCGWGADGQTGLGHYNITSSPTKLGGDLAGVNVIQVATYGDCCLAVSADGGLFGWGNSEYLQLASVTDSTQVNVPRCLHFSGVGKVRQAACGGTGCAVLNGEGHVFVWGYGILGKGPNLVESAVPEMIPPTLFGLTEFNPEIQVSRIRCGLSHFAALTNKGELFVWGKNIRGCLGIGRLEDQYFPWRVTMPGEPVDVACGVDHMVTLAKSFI
UniProt P48382: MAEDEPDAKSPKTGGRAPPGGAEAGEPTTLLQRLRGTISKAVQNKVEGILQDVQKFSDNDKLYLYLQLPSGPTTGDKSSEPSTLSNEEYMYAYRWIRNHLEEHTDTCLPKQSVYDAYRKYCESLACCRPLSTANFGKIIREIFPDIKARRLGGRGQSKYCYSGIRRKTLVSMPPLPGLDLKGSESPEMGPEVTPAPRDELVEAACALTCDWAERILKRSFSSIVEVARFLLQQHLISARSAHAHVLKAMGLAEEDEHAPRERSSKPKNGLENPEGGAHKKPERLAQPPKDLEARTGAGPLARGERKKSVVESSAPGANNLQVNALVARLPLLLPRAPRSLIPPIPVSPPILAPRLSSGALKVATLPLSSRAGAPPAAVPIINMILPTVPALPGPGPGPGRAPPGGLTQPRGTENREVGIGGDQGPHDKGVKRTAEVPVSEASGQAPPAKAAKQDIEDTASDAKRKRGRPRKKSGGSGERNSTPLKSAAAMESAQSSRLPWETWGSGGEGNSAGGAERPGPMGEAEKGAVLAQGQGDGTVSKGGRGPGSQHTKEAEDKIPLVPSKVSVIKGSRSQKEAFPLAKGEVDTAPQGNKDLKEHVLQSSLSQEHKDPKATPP
UniProt Q8N1G1: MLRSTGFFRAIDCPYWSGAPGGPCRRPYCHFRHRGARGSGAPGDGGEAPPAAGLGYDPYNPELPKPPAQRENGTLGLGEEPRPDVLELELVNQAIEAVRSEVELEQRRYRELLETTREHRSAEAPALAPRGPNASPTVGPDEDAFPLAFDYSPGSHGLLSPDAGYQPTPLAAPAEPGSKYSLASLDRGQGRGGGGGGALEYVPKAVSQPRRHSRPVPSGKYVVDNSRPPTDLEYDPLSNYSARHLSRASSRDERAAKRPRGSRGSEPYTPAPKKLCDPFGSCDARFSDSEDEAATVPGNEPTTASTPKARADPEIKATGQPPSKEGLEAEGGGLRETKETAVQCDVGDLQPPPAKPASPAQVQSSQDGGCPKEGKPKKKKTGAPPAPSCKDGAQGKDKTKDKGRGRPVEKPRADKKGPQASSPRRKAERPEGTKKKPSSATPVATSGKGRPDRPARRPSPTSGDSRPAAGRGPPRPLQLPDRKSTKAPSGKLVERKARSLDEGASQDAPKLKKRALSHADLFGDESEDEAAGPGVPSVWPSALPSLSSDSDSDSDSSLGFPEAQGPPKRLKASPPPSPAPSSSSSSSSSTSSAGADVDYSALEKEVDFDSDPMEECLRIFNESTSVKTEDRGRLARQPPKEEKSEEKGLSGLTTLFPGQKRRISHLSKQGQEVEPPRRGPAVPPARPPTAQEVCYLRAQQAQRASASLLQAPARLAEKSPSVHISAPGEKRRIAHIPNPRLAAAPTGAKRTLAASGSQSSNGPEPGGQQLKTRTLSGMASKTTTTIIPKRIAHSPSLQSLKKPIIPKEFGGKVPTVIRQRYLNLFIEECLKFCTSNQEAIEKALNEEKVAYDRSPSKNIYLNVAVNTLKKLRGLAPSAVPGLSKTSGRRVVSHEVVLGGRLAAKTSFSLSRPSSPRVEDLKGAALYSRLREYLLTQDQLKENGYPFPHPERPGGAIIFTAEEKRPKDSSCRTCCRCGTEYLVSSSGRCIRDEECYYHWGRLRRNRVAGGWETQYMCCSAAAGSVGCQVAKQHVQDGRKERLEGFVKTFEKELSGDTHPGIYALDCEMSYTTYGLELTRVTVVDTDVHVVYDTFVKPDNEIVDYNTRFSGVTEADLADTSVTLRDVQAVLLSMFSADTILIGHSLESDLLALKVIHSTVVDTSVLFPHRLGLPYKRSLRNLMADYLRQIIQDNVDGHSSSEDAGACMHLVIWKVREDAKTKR
UniProt P48378: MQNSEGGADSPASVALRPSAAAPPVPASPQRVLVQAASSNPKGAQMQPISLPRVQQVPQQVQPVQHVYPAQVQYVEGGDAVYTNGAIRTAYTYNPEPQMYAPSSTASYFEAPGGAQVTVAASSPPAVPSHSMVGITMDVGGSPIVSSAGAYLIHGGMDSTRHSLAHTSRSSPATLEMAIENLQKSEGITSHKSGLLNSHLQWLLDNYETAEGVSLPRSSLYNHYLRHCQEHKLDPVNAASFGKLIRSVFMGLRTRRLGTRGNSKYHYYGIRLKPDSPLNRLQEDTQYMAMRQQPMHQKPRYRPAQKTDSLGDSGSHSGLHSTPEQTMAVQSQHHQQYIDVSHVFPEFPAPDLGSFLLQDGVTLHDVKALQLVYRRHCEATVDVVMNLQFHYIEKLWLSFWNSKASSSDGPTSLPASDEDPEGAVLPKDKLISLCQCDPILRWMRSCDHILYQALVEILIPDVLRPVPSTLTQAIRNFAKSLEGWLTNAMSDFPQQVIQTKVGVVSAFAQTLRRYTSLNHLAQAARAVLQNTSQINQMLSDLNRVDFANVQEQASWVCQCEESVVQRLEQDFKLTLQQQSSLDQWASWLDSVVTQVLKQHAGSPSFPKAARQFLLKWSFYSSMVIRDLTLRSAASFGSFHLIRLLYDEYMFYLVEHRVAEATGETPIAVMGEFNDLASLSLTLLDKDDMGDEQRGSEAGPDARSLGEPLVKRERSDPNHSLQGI
UniProt O43251: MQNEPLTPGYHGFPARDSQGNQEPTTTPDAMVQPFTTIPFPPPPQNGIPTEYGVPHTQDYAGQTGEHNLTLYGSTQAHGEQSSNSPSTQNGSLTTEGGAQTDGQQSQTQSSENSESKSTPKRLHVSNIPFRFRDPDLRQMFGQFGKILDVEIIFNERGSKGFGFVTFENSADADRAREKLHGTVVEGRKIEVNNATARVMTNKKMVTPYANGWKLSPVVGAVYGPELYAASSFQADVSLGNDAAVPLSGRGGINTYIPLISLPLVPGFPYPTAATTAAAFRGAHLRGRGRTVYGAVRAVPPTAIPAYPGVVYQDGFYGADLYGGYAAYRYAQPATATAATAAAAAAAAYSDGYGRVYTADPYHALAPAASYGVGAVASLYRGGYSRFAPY

[1] = compound: CC(=O)c1cnc2ccc(-c3cc(Cl)c(O)c(Cl)c3)nc2c1N[C@H]1CC[C@H](CN(C)C)CC1
Method in brief: as §1

ralimetinib = compound: CC(C)(C)Cn1c(N)nc2ccc(-c3[nH]c(C(C)(C)C)nc3-c3ccc(F)cc3)nc21 [ralimetinib]
Method in brief: as §1

[2] = compound: CC(C)(O)CC(=O)NCCn1ccc2ncnc(Nc3ccc(Oc4cccc(C(F)(F)F)c4)c(Cl)c3)c21
Method in brief: as §1

[3] = compound: CC(C)C1=C2N=C(C=C(N2N=C1)NCC3=CC=CC=C3)NCCCCCCN
Method in brief: as §1

[4] = compound: CC1=C(C(CC(=O)N1)C2=CC=C(C=C2)C(F)(F)F)C(=O)NC3=C(C=C4C(=C3)C=NN4)F
Method in brief: as §1

[5] = compound: CC1=C(C2=C(C=C1)C(=O)C3=CC=CC=C3N2CCCN)C
Method in brief: as §1

[6] = compound: CC1=C(C=C(C=C1)NC(=O)C2=CC(=CC=C2)C(C)(C)C#N)NC3=CC4=C(C=C3)N=CN(C4=O)C
Method in brief: as §1

[7] = compound: CC1=C(C=C(C=C1)NC(=O)C2=CC(=CC=C2)N(C)C)NC(=O)C3=CC=C(C=C3)O
Method in brief: as §1

[8] = compound: CC1=CC=C(C=C1)SC2=C3C=C(SC3=CN=C2)C(=O)N
Method in brief: as §1

Measured: log2 fold change

RASA2 (UniProt Q15283)
inactive: ibrutinib 0.034 | [1] -0.011 | ralimetinib 0.006 | [2] -0.038 | [3] 0.014 | [4] 0.023 | [5] 0.004 | [6] 0.033 | [7] 0.019 | [8] -0.013

RBM7 (UniProt Q9Y580)
inactive: ibrutinib -0.009 | [1] 0.043 | ralimetinib 0.04 | [2] 0.017 | [3] -0.013 | [4] -0.002 | [5] 0.03 | [6] -0.029 | [7] 0.03 | [8] 0.013

REEP4 (UniProt Q9H6H4)
inactive: ibrutinib -0.043 | [1] -0.015 | ralimetinib 0.021 | [2] -0.102 | [3] 0.003 | [4] 0.133 | [5] 0.033 | [6] -0.011 | [7] 0.013 | [8] 0

Two successive entries out of the list so far:
RASA2 (UniProt Q15283)
inactive: ibrutinib 0.034 | [1] -0.011 | ralimetinib 0.006 | [2] -0.038 | [3] 0.014 | [4] 0.023 | [5] 0.004 | [6] 0.033 | [7] 0.019 | [8] -0.013

RBM7 (UniProt Q9Y580)
inactive: ibrutinib -0.009 | [1] 0.043 | ralimetinib 0.04 | [2] 0.017 | [3] -0.013 | [4] -0.002 | [5] 0.03 | [6] -0.029 | [7] 0.03 | [8] 0.013

Going on with the list:

RCL1 (UniProt Q9Y2P8)
inactive: ibrutinib 0.071 | [1] 0 | ralimetinib 0.052 | [2] -0.003 | [3] -0.048 | [4] 0.069 | [5] 0.036 | [6] 0.115 | [7] 0.012 | [8] 0.003

RCSD1 (UniProt Q6JBY9)
inactive: ibrutinib 0.02 | [1] -0.005 | ralimetinib -0.01 | [2] -0.022 | [3] 0.006 | [4] -0.012 | [5] -0.024 | [6] 0.027 | [7] 0.026 | [8] -0.012

RFC1 (UniProt P35251)
inactive: ibrutinib 0.144 | [1] 0.002 | ralimetinib 0.082 | [2] -0.012 | [3] 0.055 | [4] 0.005 | [5] -0.021 | [6] 0.067 | [7] 0.021 | [8] 0.024

RBBP5 (UniProt Q15291)
inactive: ibrutinib -0.001 | [1] -0.033 | ralimetinib 0.036 | [2] -0.002 | [3] -0.003 | [4] -0.008 | [5] 0.046 | [6] 0.02 | [7] -0.003 | [8] -0.029

RCC1L (UniProt Q96I51)
inactive: ibrutinib -0.018 | [1] -0.016 | ralimetinib 0.059 | [2] 0.014 | [3] -0.016 | [4] -0.006 | [5] -0.026 | [6] -0.016 | [7] -0.002 | [8] 0.009

RASSF5 (UniProt Q8WWW0)
inactive: ibrutinib 0.011 | [1] 0.117 | ralimetinib -0.032 | [2] -0.045 | [3] -0.012 | [4] -0.03 | [5] -0.021 | [6] 0.002 | [7] -0.072 | [8] -0.019

RFX5 (UniProt P48382)
inactive: ibrutinib -0.061 | [1] -0.01 | ralimetinib 0.046 | [2] 0.014 | [3] -0.092 | [4] 0.077 | [5] 0.008 | [6] 0.06 | [7] -0.057 | [8] 0.012

RBMY1E (UniProt A6NEQ0)
inactive: ibrutinib -0.007 | [1] -0.138 | [5] -0.093 | [6] 0.059 | [8] -0.016

REXO1 (UniProt Q8N1G1)
inactive: ibrutinib -0.01 | ralimetinib -0.01 | [2] -0.03 | [3] 0.034 | [4] 0.11 | [6] 0.09 | [7] 0.182

RFX2 (UniProt P48378)
inactive: ibrutinib -0.151 | [1] 0.012 | [5] -0.078 | [6] 0.013 | [8] -0.077

RBFOX2 isoform 8 (UniProt O43251)
inactive: ibrutinib -0.293 | [1] 0.025 | ralimetinib -0.036 | [2] -0.086 | [3] -0.174 | [5] -0.048 | [6] -0.268 | [7] 0.005 | [8] 0.11

From the supplement of paper PMC10849652
